Laboratory results: PubChem BioAssay AID652272 (Drosophila RNAi Screening Center, 2013)
Aim: 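Finding fly genes that regulate Hedgehog signal transduction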 (primary screen). Cell system: Drosophila clone 8 (Cl8) cells. Reagents: long dsRNA against Drosophila genes. Read-out: 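Firefly light from a Hedgehog-responsive ptc promoter reporter and Renilla reference light, both read on a plate reader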. Scale: firefly Hh reporter signal: higher = more ptc reporter light; Renilla reference signal: higher = more Renilla control light. Active means: 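Hit when the z-score averaged over two replicates is under -2 or over +3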. Calls: active = hit: reporter lowered or raised; inactive = not a hit.
The screen tested about 21,000 reagents; shown is a random part of those with a known target gene and a result. In the full data, 503 (2.4%) got an active call. 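Raw plate light values, not normalised; calls rest on replicate z-scores that were not deposited; hits include reporter decreases as well as increases.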 A plus sign joins genes that one reagent is predicted to hit. No sequences are given here. Not stated in the record: the amount of reagent, the time to read-out.

| Gene | dsRNA | firefly Hh reporter signal, replicate 1 | firefly Hh reporter signal, replicate 2 | Renilla reference signal, replicate 1 | Renilla reference signal, replicate 2 | Call |
| --- | --- | --- | --- | --- | --- | --- |
| ND-19 (NADH dehydrogenase (ubiquinone) 19 kDa subunit) | DRSC04404 | 1.29e5 | 71469 | 3065 | 6301 | inactive |
| nompC (no mechanoreceptor potential C) | DRSC03581 | 78759 | 56342 | 1259 | 5885 | inactive |
| CG43078 | DRSC10292 | 57831 | 29235 | 2625 | 1253 | inactive |
| CG43078 | DRSC10608 | 1.00e5 | 67216 | 4038 | 2640 | inactive |
| CG13197 | DRSC06322 | 1.00e5 | 57395 | 2661 | 3853 | inactive |
| hale (hale-bopp) | DRSC10882 | 61569 | 99200 | 2182 | 2832 | inactive |
| Tim10 + CG42497 | DRSC04664 | 96407 | 81160 | 3976 | 3133 | inactive |
| Lsp1beta (Larval serum protein 1 beta) | DRSC00757 | 80405 | 56618 | 3593 | 2458 | inactive |
| shn (schnurri) | DRSC05266 | 1.38e5 | 2.99e5 | 3952 | 13030 | inactive |
| shn (schnurri) | DRSC07681 | 69958 | 73973 | 2916 | 2630 | inactive |
| Asap (ArfGAP with SH3 domain, ankyrin repeat and PH domain) | DRSC06493 | 1.38e5 | 62325 | 3348 | 5421 | inactive |
| Asap (ArfGAP with SH3 domain, ankyrin repeat and PH domain) | DRSC06830 | 84925 | 54269 | 3557 | 1851 | inactive |
| Acbp4 (Acyl-CoA binding protein 4) | DRSC11023 | 48887 | 61673 | 5553 | 4358 | inactive |
| Skadu | DRSC01490 | 1.18e5 | 1.81e5 | 3538 | 7993 | inactive |
| CG5937 | DRSC18392 | 58401 | 1.46e5 | 1524 | 5990 | inactive |
| CG18557 | DRSC00524 | 1.43e5 | 1.02e5 | 3402 | 2352 | inactive |
| aqrs (aquarius) | DRSC14724 | 87457 | 1.14e5 | 2972 | 2666 | inactive |
| nsl1 (non-specific lethal 1) | DRSC15625 | 85730 | 63616 | 1139 | 689 | active |
| SERCA (Sarco/endoplasmic reticulum Ca(2+)-ATPase) | DRSC04600 | 64167 | 80151 | 3200 | 3112 | inactive |
| Tip60 (Tat interactive protein 60kDa) | DRSC18661 | 1.20e5 | 1.18e5 | 2801 | 4672 | inactive |
| eys (eyes shut) | DRSC00113 | 3.96e5 | 1.14e5 | 20937 | 4679 | inactive |
| eys (eyes shut) | DRSC00402 | 93204 | 99669 | 2393 | 2564 | inactive |
| eys (eyes shut) | DRSC00403 | 1.09e5 | 1.06e5 | 2554 | 2124 | inactive |
| eys (eyes shut) | DRSC00695 | 1.76e5 | 74009 | 6297 | 3222 | inactive |
| rpr (reaper) | DRSC11390 | 1.50e5 | – | 5328 | 4024 | inactive |
| CG5412 | DRSC15796 | 82977 | 1.01e5 | 3770 | 3634 | inactive |
| flw (flapwing) | DRSC17992 | 99000 | 2.92e5 | 3090 | 9963 | inactive |
| flw (flapwing) | DRSC18774 | 80569 | 4.12e5 | 2880 | 14860 | inactive |
| sing (singles bar) | DRSC19530 | 72530 | 1.33e5 | 2307 | 5723 | inactive |

The list goes on (8 carried over from the part before).
| Gene | dsRNA | firefly Hh reporter signal, replicate 1 | firefly Hh reporter signal, replicate 2 | Renilla reference signal, replicate 1 | Renilla reference signal, replicate 2 | Call |
| --- | --- | --- | --- | --- | --- | --- |
| eys (eyes shut) | DRSC00402 | 93204 | 99669 | 2393 | 2564 | inactive |
| eys (eyes shut) | DRSC00403 | 1.09e5 | 1.06e5 | 2554 | 2124 | inactive |
| eys (eyes shut) | DRSC00695 | 1.76e5 | 74009 | 6297 | 3222 | inactive |
| rpr (reaper) | DRSC11390 | 1.50e5 | – | 5328 | 4024 | inactive |
| CG5412 | DRSC15796 | 82977 | 1.01e5 | 3770 | 3634 | inactive |
| flw (flapwing) | DRSC17992 | 99000 | 2.92e5 | 3090 | 9963 | inactive |
| flw (flapwing) | DRSC18774 | 80569 | 4.12e5 | 2880 | 14860 | inactive |
| sing (singles bar) | DRSC19530 | 72530 | 1.33e5 | 2307 | 5723 | inactive |
| CG18853 | DRSC06795 | 94557 | 65057 | 2192 | 5212 | inactive |
| Lsp1alpha (Larval serum protein 1 alpha) | DRSC20258 | 81691 | 2.02e5 | 3100 | 8752 | inactive |
| CG9497 | DRSC03234 | 83812 | 88484 | 3780 | 3581 | inactive |
| CG34459 | DRSC06973 | 63056 | 58741 | 795 | 3632 | inactive |
| mus201 + Chrac-14 | DRSC03568 | 95597 | 51130 | 2259 | 4420 | inactive |
| mus201 + Chrac-14 | DRSC03575 | 72880 | 38644 | 1802 | 3584 | inactive |
| kcc (kazachoc) | DRSC04316 | 1.09e5 | 81382 | 5066 | 3271 | inactive |
| kcc (kazachoc) | DRSC04516 | 91260 | 61392 | 2729 | 5642 | inactive |
| CG1324 | DRSC20496 | 83312 | 1.05e5 | 2116 | 2016 | inactive |
| Wbp2 (WW domain binding protein 2) | DRSC09821 | 47184 | 52425 | 2332 | 2208 | inactive |
| CG8630 | DRSC16441 | 67691 | 58321 | 2778 | 1712 | inactive |
| lncRNA:CR43337 (long non-coding RNA:CR43337) | DRSC07893 | 1.35e5 | 2.67e5 | 3288 | 11146 | inactive |
| Alg-2 (Apoptosis-linked gene-2) | DRSC07799 | 78745 | 39433 | 3090 | 3078 | inactive |
| CG31468 | DRSC13637 | 63105 | 2.61e5 | 14457 | 4733 | inactive |
| Idh3a (Isocitrate dehydrogenase 3a) | DRSC19446 | 96893 | 1.78e5 | 3712 | 7016 | inactive |
| Cyfip (Cytoplasmic FMR1 interacting protein) | DRSC15679 | 1.02e5 | 71574 | 4277 | 3081 | inactive |
| GluRIIB (Glutamate receptor IIB) | DRSC03335 | 91972 | 69552 | 1990 | 5205 | inactive |
| CG10395 | DRSC04840 | 1.28e5 | 1.00e5 | 4096 | 2967 | inactive |
| CG7997 | DRSC07052 | 1.18e5 | 75030 | 5616 | 2873 | inactive |
| Sf3b1 (Splicing factor 3b subunit 1) | DRSC00535 | 45056 | 34556 | 1453 | 2208 | active |
| CG11857 | DRSC14411 | 4.38e5 | 74805 | 23953 | 2277 | inactive |
| Vps45 (Vacuolar protein sorting 45) | DRSC16398 | 70500 | 1.03e5 | 2746 | 2860 | inactive |
| CG7523 | DRSC16254 | 1.07e5 | 1.12e5 | 4609 | 3577 | inactive |
| CG4596 | DRSC15608 | 64868 | 1.39e5 | 1852 | 4439 | inactive |
| Arl1 (ADP ribosylation factor-like 1) | DRSC09667 | 1.54e5 | – | 2387 | 4355 | inactive |
| Pvr (PDGF- and VEGF-receptor related) | DRSC03080 | 65338 | 49424 | 2704 | 1613 | inactive |
| c-cup (calcutta cup) | DRSC00458 | 2.00e5 | 1.13e5 | 3952 | 3077 | inactive |
| dpr4 (defective proboscis extension response 4) | DRSC14531 | 1.17e5 | 1.39e5 | 3996 | 3483 | inactive |
| dpr4 (defective proboscis extension response 4) | DRSC14929 | 1.40e5 | 1.42e5 | 4864 | 4624 | inactive |
